According to patent US6686353B1, “Diarylalkyl cyclic diamine derivatives as chemokine receptor antagonists” (Teijin Intellectual Property Center Limited, priority 1996, dated 2004):
Some results were stated once for a whole list of compounds, not compound by compound. For at least one compound, name, drawing or mass did not settle the structure.

Molecular target: T1, human MCP-1 binding to THP-1 cells (Homo sapiens, UniProt P41597)
T1 construct: endogenous in cells; host or cells: THP-1 (human monocytic leukemia cell line), whole cells
T1 sequence (P41597 1-360 isoform P41597-2): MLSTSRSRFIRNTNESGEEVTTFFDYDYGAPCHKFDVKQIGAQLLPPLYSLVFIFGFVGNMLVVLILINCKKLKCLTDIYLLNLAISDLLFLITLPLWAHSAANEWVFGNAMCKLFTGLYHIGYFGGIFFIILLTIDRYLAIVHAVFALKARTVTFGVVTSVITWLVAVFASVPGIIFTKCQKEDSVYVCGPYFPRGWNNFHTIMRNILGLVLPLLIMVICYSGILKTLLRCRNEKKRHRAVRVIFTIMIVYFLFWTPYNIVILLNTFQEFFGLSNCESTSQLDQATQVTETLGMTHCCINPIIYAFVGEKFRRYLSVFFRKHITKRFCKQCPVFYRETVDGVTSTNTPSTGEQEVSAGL
Experiment: Inhibition of [125I]-labeled human MCP-1 binding to THP-1 cells
Details: at 100 μM test compound
Description: Measurement of Inhibition of MCP-1 Binding to TP-1 Cells
1. Construction of Recombinant Baculovirus Carrying the Human MCP-1 Gene
Based on the previously published human MCP-1 gene sequence (for example T. Yoshimura et al., Febs Letters, 1989, 244, 487-493), two synthetic DNA primers (5′-[…]-3′ and 5′-[…]-3′) flanked by restriction enzyme sites were used to amplify a DNA fragment from cDNA derived from human endothelial cells (purchased from Kurabow Co.); the amplified fragment was cut with the restriction enzymes (PstI and XbaI), ligated into a transfer vector pVL1393 (Invitrogen Co.), and the resulting vector was co-transfected along with infectious baculovirus into Sf-9 insect cells and the supernatant was plaque assayed to yield human MCP-1 gene baculovirus recombinant.
2. Synthesis of [^125I]-labeled Human MCP-1 Expressed in Baculovirus
Using the method of K. Ishii et al. (Biochem Biophys Research Communications 1995, 206, 955-961), 5×10^6 Sf-6 insect cells was infected with 5×10^7 PFU (plaque forming units) of the above human MCP-1 recombinant baculovirus and cultured for 7 days in Ex-Cell 401 medium. The culture supernatant was affinity purified using a heparin Sepharose column (Pharmacia Co.) and then further purified using reverse phase HPLC (Vydac C18 column) to prepare purified human MCP-1. The purified human MCP-1 was protein labeled by Amersham Co. using the Bolton Hunter method to yield [^125I]-labeled baculovirus expressed human MCP-1 (specific activity 2000 Ci/mmol).
3. Measurement of Inhibition of Binding of [^125I]-labeled Baculovirus Expressed Human MCP-1 to THP-1 Cells
Human monocytic leukemia cell line THP-1 was suspended in assay buffer (RPMI-1640 (Gibco-BRL Co.) containing 0.1% BSA and 25 mM HEPES adjusted to pH 7.4) to give a cell suspension of a concentration of 1×10^7 cells/mL. The test compound was diluted in the assay buffer and used as the test compound solution. [^125I]-labeled human MCP-1 described above was diluted in assay buffer to 1 mCi/mL and used as the labeled ligand solution. In a 96 well filter plate (Millipore Co.), 25 μL of test compound solution, 25 μL of labeled ligand solution and 50 μL of cell suspension were aliquoted into each well in this order, stirred (total reaction volume 100 μL), and incubated for one hour at 18° C.
After the reaction, the reaction solution was filtered, and the filter was washed twice with 200 μL of cold PBS (200 μL of cold PBS was added and then filtered). The filter was removed and placed in an RIA tube (Iuchi Seieido Co.,), and the radioactivity retained by the cells on the filter were measured using a gamma counter (Aloka Co.).
To calculate the ability of test compound to inhibit binding of human MCP-1 to THP-1 cells, non-specific binding determined by adding 100 ng of unlabeled human MCP-1 in place of the test compound was subtracted, while the counts with no test compound added was taken as 100%.
Inhibition (%)=(1−(A−B)/(C−B))×100
(A, counts with test compound added; B, counts with 100 ng of unlabeled human […] added; C, counts with [^125I]-labeled human MCP-1 added).

SMILES	inhibitory activity (inhibition of human MCP-1 binding to THP-1 cells)
O=C(CN1CCCN(CCC(c2ccccc2)c2ccccc2)CC1)NCC(O)c1ccc(O)cc1 (racemic) [Compound No. 277]	> 20%
O=C(CN1CCCN(CCC(c2ccccc2)c2ccccc2)CC1)NCC(O)c1cccc(O)c1 (racemic) [Compound No. 278]	> 20%
COC(=O)CC(NC(=O)CN1CCCN(CCC(c2ccccc2)c2ccccc2)CC1)C(=O)OC (racemic) [Compound No. 284]	> 20%
COC(=O)C(Cc1ccc(O)cc1)NC(=O)CN1CCCN(CCC(c2ccccc2)c2ccccc2)CC1 (racemic) [Compound No. 287]	> 20%
CCN(CC)C(=O)CN1CCCN(CCC(O)(c2ccccc2)c2cccc(O)c2)CC1 (racemic) [Compound No. 293]	> 20%
O=C(CN1CCN(CCC(c2ccccc2)c2ccccc2)CC1)NCC(=O)c1ccccc1.O=C(O)C(F)(F)F.O=C(O)C(F)(F)F [Compound No. 10]	> 20%
CC(C)(C)OC(=O)c1ccc(C(CCN2CCCN(Cc3ccc(S(C)(=O)=O)cc3)CC2)c2ccccc2)cc1 (stereo not drawn) [Compound No. 69]	> 20%
COC(=O)c1ccc(C(CCN2CCCN(Cc3ccc(S(C)(=O)=O)cc3)CC2)c2ccccc2)cc1 (stereo not drawn) [Compound No. 72]	> 20%
COC(=O)CN(NC(=O)c1ccccc1)C(=O)CN1CCCN(CCC(c2ccccc2)c2ccccc2)CC1 [Compound No. 84]	> 20%
O=C(CN1CCCN(CCC(c2ccccc2)c2ccccc2)CC1)NCC(=O)c1ccccc1 [Compound No. 85]	> 20%
O=C(CN1CCCN(CCC(c2ccccc2)c2ccccc2)CC1)NNC(=O)c1ccc([N+](=O)[O-])cc1 [Compound No. 86]	> 20%
O=C(CN1CCCN(CCC(c2ccccc2)c2ccccc2)CC1)NNC(=O)c1ccc(Cl)cc1 [Compound No. 88]	> 20%
COc1ccc(C(=O)CNC(=O)CN2CCCN(CCC(c3ccccc3)c3ccccc3)CC2)cc1 [Compound No. 91]	> 20%
Nc1ccc(C(=O)NNC(=O)CN2CCCN(CCC(c3ccccc3)c3ccccc3)CC2)cc1 [Compound No. 93]	> 20%
CC(=O)Nc1ccc(S(=O)(=O)NNC(=O)CN2CCCN(CCC(c3ccccc3)c3ccccc3)CC2)cc1 [Compound No. 96]	> 20%
CC(=O)c1ccc(C(=O)NNC(=O)CN2CCCN(CCC(c3ccccc3)c3ccccc3)CC2)cc1 [Compound No. 100]	> 20%
O=C(CN1CCCN(CCC(c2ccccc2)c2cccc(O)c2)CC1)NCC(=O)c1ccccc1.O=C(O)C(F)(F)F.O=C(O)C(F)(F)F (stereo not drawn) [Compound No. 101]	> 20%
CS(=O)(=O)c1ccc(CN2CCCN(CCC(O)(c3cccc(O)c3)c3cc(F)cc(F)c3)CC2)cc1 (stereo not drawn) [Compound No. 138, 1-(3,5-Difluorophenyl)-3-hydroxy-3-(3-hydroxyphenyl)propyl-4-[4-(methylsulfonyl)benzyl]homopiperazine]	> 20%
CNc1cccc(C(O)(CCN2CCCN(Cc3ccc(S(C)(=O)=O)cc3)CC2)c2ccccc2)c1 (stereo not drawn) [Compound No. 146, 1-[3-Hydroxy-3-(3-methylainophenyl)-3-phenylpropyl]-4-[4-(methylsulfonyl)benzyl]homopiperazine]	> 20%
O=S(=O)(CCO)c1ccc(CN2CCCN(CCC(O)(c3ccccc3)c3ccc[nH]3)CC2)cc1 (stereo not drawn) [Compound No. 160]	> 20%

SMILES	inhibitory activity (inhibition of human MCP-1 binding to THP-1 cells)
O=C(O)C(F)(F)F.O=C(O)C(F)(F)F.O=S(=O)(c1ccc(O)cc1)c1ccc(O)c(CN2CCCN(CCC(O)(c3ccccc3)c3cccc(O)c3)CC2)c1 (stereo not drawn) [Compound No. 187]	> 20%
Cc1ccc(S(=O)(=O)CCCN2CCCN(CCC(O)(c3ccccc3)c3cccc(O)c3)CC2)cc1.O=C(O)C(F)(F)F (stereo not drawn) [Compound No. 188]	> 20%
O=C(CN1CCCN(CCC(O)(c2ccccc2)c2cccc(O)c2)CC1)NCC(=O)c1ccccc1 (stereo not drawn) [Compound No. 189]	> 20%
O=S(=O)(c1ccc(CN2CCCN(CCC(O)(c3ccccc3)c3cccc(O)c3)CC2)cc1)n1cccc1 (stereo not drawn) [Compound No. 190]	> 20%
O=C(CN1CCCN(CCC(O)(c2ccccc2)c2cccc(O)c2)CC1)c1ccc(O)c(O)c1.O=C(O)C(F)(F)F (stereo not drawn) [Compound No. 192]	> 20%
O=C(CN1CCCN(CCC(O)(c2ccccc2)c2cccc(O)c2)CC1)Nc1ccc(F)c([N+](=O)[O-])c1.O=C(O)C(F)(F)F (stereo not drawn) [Compound No. 193]	> 20%
O=C(CN1CCCN(CCC(O)(c2ccccc2)c2cccc(O)c2)CC1)NNC(=O)Nc1ccccc1.O=C(O)C(F)(F)F.O=C(O)C(F)(F)F (stereo not drawn) [Compound No. 195]	> 20%
N=C(CN1CCCN(CCC(O)(c2ccccc2)c2cccc(O)c2)CC1)NS(=O)(=O)c1ccc(Cl)cc1.O=C(O)C(F)(F)F.O=C(O)C(F)(F)F (stereo not drawn) [Compound No. 196]	> 20%
N#CCCN1CCCN(CCC(c2ccccc2)c2ccccc2)CC1 [Compound No. 214]	> 20%
O=C1c2ccccc2C(=O)N1CC(O)CN1CCCN(CCC(c2ccccc2)c2ccccc2)CC1 (stereo not drawn) [Compound No. 225]	> 20%
O=C(CN1CCCN(CCC(c2ccccc2)c2ccccc2)CC1)N[C@H]1c2ccccc2C[C@H]1O [Compound No. 226]	> 20%
O=C1c2ccccc2C(=O)N1CCCN1CCCN(CCC(O)(c2ccccc2)c2cccc(O)c2)CC1 (stereo not drawn) [Compound No. 227]	> 20%
O=c1[nH]c2ccccc2n1CCCN1CCCN(CCC(O)(c2ccccc2)c2cccc(O)c2)CC1 (stereo not drawn) [Compound No. 228]	> 20%
O=S(=O)(C/C=C/CN1CCCN(CCC(O)(c2ccccc2)c2cccc(O)c2)CC1)c1ccccc1 (stereo not drawn) [Compound No. 229]	> 20%
Cc1c(C)n2c(CN3CCCN(CCC(O)(c4ccccc4)c4cccc(O)c4)CC3)c(C)c(=O)n2c1=O.O=C(O)C(F)(F)F.O=C(O)C(F)(F)F (stereo not drawn) [Compound No. 231]	> 20%
O=C(O)C(F)(F)F.O=C(O)C(F)(F)F.O=C(O)C(F)(F)F.O=c1[nH]cc(CN2CCCN(CCC(O)(c3ccccc3)c3cccc(O)c3)CC2)c(=O)[nH]1 (stereo not drawn) [Compound No. 232]	> 20%
Cc1csc(C(=O)NNC(=O)CN2CCCN(CCC(c3ccccc3)c3ccccc3)CC2)c1-n1cccc1 [Compound No. 248]	> 20%
O=C(CN1CCCN(CCC(c2ccccc2)c2ccccc2)CC1)NNC(=O)c1cc(Cl)nc(Cl)c1 [Compound No. 249]	> 20%
O=C(CN1CCCN(CCC(c2ccccc2)c2ccccc2)CC1)NNS(=O)(=O)c1cccs1 [Compound No. 256]	> 20%
